Results are given in words; binding and its absence hold for the method and conditions named. Binding seen in cells or lysates may run through a third protein. Some results given as binding are weak or reduced against the parent protein; the word gives no strength. Tags and fused reporters may be left off the sequences shown.

Sequences of proteins named here, by UniProt entry; tags and fusion partners are left off.
UniProt P46108: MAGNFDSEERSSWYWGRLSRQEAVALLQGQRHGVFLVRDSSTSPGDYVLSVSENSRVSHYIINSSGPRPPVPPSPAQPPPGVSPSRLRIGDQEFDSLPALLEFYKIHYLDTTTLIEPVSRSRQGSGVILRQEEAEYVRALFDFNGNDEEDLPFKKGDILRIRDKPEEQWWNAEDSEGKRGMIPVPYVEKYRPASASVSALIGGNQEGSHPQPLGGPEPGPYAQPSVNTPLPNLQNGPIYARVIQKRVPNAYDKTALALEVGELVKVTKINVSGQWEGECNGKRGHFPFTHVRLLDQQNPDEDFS

The target in assay [1] is GFP-tagged human CRK (human) (UniProt P46108). Description: co-IP; HEK293 cells transfected with combinations of plasmids, with or without active Src(Y529F); lysates 48 h after transfection; GFP-tagged proteins precipitated with GFP-Trap_A beads; Western blots (anti-HA, anti-C3G, anti-phosphotyrosine).
Assay [2] addresses T1, GFP-tagged Monosiga brevicollis crka1 (Monosiga brevicollis).
T1 sequence: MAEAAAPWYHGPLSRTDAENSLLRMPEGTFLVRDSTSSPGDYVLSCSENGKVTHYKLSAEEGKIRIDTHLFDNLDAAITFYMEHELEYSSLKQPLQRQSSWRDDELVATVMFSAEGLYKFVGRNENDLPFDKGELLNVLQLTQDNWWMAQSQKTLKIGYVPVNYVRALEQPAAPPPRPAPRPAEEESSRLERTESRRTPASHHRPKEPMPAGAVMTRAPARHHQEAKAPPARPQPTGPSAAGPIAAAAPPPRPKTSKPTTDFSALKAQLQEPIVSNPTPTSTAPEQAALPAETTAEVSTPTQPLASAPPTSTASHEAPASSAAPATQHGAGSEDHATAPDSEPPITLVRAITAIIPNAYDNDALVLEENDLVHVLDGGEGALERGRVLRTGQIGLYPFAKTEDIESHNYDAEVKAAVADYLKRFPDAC
The assay is described as above.

B1: RAPGEF1 (C3G) (protein, UniProt Q13905 1-1077)
chain: MDTDSQRSHLSSFTMKLMDKFHSPKIKRTPSKKGKPAEVSVKIPEKPVNKEATDRFLPEGYPLPLDLEQQAVEFMSTSAVASRSQRQKNLSWLEEKEKEVVSALRYFKTIVDKMAIDKKVLEMLPGSASKVLEAILPLVQNDPRIQHSSALSSCYSRVYQSLANLIRWSDQVMLEGVNSEDKEMVTTVKGVIKAVLDGVKELVRLTIEKQGRPSPTSPVKPSSPASKPDGPAELPLTDREVEILNKTTGMSQSTELLPDATDEEVAPPKPPLPGIRVVDNSPPPALPPKKRQSAPSPTRVAVVAPMSRATSGSSLPVGINRQDFDVDCYAQRRLSGGSHSYGGESPRLSPCSSIGKLSKSDEQLSSLDRDSGQCSRNTSCETLDHYDPDYEFLQQDLSNADQIPQQTAWNLSPLPESLGESGSPFLGPPFQLPLGGHPQPDGPLAPGQQTDTPPALPEKKRRSAASQTADGSGCRVSYERHPSQYDNISGEDLQSTAPIPSVPYAPFAAILPFQHGGSSAPVEFVGDFTAPESTGDPEKPPPLPEKKNKHMLAYMQLLEDYSEPQPSMFYQTPQNEHIYQQKNKLLMEVYGFSDSFSGVDSVQELAPPPALPPKQRQLEPPAGKDGHPRDPSAVSGVPGKDSRDGSERAPKSPDALESAQSEEEVDELSLIDHNEIMSRLTLKQEGDDGPDVRGGSGDILLVHATETDRKDLVLYCEAFLTTYRTFISPEELIKKLQYRYEKFSPFADTFKKRVSKNTFFVLVRVVDELCLVELTEEILKLLMELVFRLVCNGELSLARVLRKNILDKVDQKKLLRCATSSQPLAARGVAARPGTLHDFHSHEIAEQLTLLDAELFYKIEIPEVLLWAKEQNEEKSPNLTQFTEHFNNMSYWVRSIIMLQEKAQDRERLLLKFIKIMKHLRKLNNFNSYLAILSALDSAPIRRLEWQKQTSEGLAEYCTLIDSSSSFRAYRAALSEVEPPCIPYLGLILQDLTFVHLGNPDYIDGKVNFSKRWQQFNILDSMRCFQQAHYDMRRNDDIINFFNDFSDHLAEEALWELSLKIKPRNITRRKTDREEKT
For B1, the binding result in assay [1] and in assay [2] was “binds” in each case.

B2: HA-tagged mouse Bcar1 co-expressed with activated mouse Src (Y529F), tyrosine-phosphorylated (protein, UniProt Q61140 1-874)
chain: MTVPNVLAKALYDNVAESPDELSFRKGDIMTVLERDTQGLDGWWLCSLHGRQGIVPGNRLKILVGMYDKKPVGPGPGPPATPPQPQPSLPQGVHAPVPPASQYSPMLPTAYQPQSDNVYLVPTPSKTQQGLYQAPGPNPQFQSPPAKQTSTFSKQTPHHSFPSPATDLYQVPPGPGSPAQDIYQVPPSAGIGHDIYQVPPSLDTRGWEGTKPPAKVVVPTRVGQGYVYEAAQTEQDEYDTPRHLLAPGPQDIYDVPPVRGLLPNQYGQEVYDTPPMAVKGPNGRDPLLDVYDVPPSVEKGLLSSSHHSVYDVPPSVSKDVPDGPLLREETYDVPPAFAKPKPFDPTRHPLILAAPPPDSPAAEDVYDVPPPAPDLYDVPPGLRRPGPGTLYDVPRERVLPPEVADGSVVDDGVYAVPPPAEREAPTDGKRLSASSTGSTRSSQSASSLEVVVPGREPLELEVAVESLARLQQGVSTTVAHLLDLVGSASGPGGWRGTSEPQEPPAQDLKAAVAAVHGAVHELLEFARGAVSNATHTSDRTLHAKLSRQLQKMEDVYQTLVVHGQVLDSGRGSPGFTPEDLDRLVACSRAVPEDAKQLASFLHGNASLLFRRTKAPGPGPEGSSSLHPNPTDKASSIQSRPLPSPPKFTSQDSPDGQYENSEGGWMEDYDYVHLQGKEEFEKTQKELLERGNIMRQGKGQLELQQLKQFERLEQEVSRPIDHDLANWTPAQPLVPGRTGGLGPSDRQLLLFYLEQCEANLTTLTDAVDAFFTAVATNQPPKIFVAHSKFVILSAHKLVFIGDTLSRQAKAADVRSQVTHYSNLLCDLLRGIVATTKAAALQYPSPSAAQDMVDRVKELGHSTQQFRRVLGQLAAA
modifications: phosphotyrosine (phosphorylated by co-expressed active Src; sites not stated)
Turning to B2, the binding result in assay [1] and in assay [2] was “binds” throughout.

B3: HA-tagged mouse Bcar1 expressed without active Src (protein, UniProt Q61140 1-874)
chain: MTVPNVLAKALYDNVAESPDELSFRKGDIMTVLERDTQGLDGWWLCSLHGRQGIVPGNRLKILVGMYDKKPVGPGPGPPATPPQPQPSLPQGVHAPVPPASQYSPMLPTAYQPQSDNVYLVPTPSKTQQGLYQAPGPNPQFQSPPAKQTSTFSKQTPHHSFPSPATDLYQVPPGPGSPAQDIYQVPPSAGIGHDIYQVPPSLDTRGWEGTKPPAKVVVPTRVGQGYVYEAAQTEQDEYDTPRHLLAPGPQDIYDVPPVRGLLPNQYGQEVYDTPPMAVKGPNGRDPLLDVYDVPPSVEKGLLSSSHHSVYDVPPSVSKDVPDGPLLREETYDVPPAFAKPKPFDPTRHPLILAAPPPDSPAAEDVYDVPPPAPDLYDVPPGLRRPGPGTLYDVPRERVLPPEVADGSVVDDGVYAVPPPAEREAPTDGKRLSASSTGSTRSSQSASSLEVVVPGREPLELEVAVESLARLQQGVSTTVAHLLDLVGSASGPGGWRGTSEPQEPPAQDLKAAVAAVHGAVHELLEFARGAVSNATHTSDRTLHAKLSRQLQKMEDVYQTLVVHGQVLDSGRGSPGFTPEDLDRLVACSRAVPEDAKQLASFLHGNASLLFRRTKAPGPGPEGSSSLHPNPTDKASSIQSRPLPSPPKFTSQDSPDGQYENSEGGWMEDYDYVHLQGKEEFEKTQKELLERGNIMRQGKGQLELQQLKQFERLEQEVSRPIDHDLANWTPAQPLVPGRTGGLGPSDRQLLLFYLEQCEANLTTLTDAVDAFFTAVATNQPPKIFVAHSKFVILSAHKLVFIGDTLSRQAKAADVRSQVTHYSNLLCDLLRGIVATTKAAALQYPSPSAAQDMVDRVKELGHSTQQFRRVLGQLAAA
In the case of B3, the binding entry in assay [1] and in assay [2] was “binds weakly” throughout.
